# From the supplement of paper PMC4807443
# Structures can show the parent of a compound that is named as a salt. The list shows a part of the results. The numbers are fractions of the control, whatever unit the source prints. Most values lie at the level of the controls, where differences are scatter.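 A lentiviral reporter stably expressed in MIN6 mouse insulinoma beta cells uses Pdx1 and Ins1 promoters to drive separate nucleus-targeted fluorescent proteins; automated imaging with Hoechst nuclear stain counted cells. Possible hits were drugs shifting Ins1 promoter signal more than two median absolute deviations from DMSO controls, with Pdx1 activity roughly normal.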
# System: MIN6
# Assay: % Pdx1+ Ins1-low (RFP-only, immature) cells relative to DMSO control (fold of DMSO control); higher = more immature Pdx1+/Ins1-low cells
# Details: 8.5 µM; 48 h; glucose 5 mM
row,Compound,% Pdx1+ Ins1-low
1,CC1(C)[C@@H](OC(=O)CCC(=O)O)CC[C@]2(C)[C@H]3C(=O)C=C4[C@@H]5C[C@@](C)(C(=O)O)CC[C@]5(C)CC[C@@]4(C)[C@]3(C)CC[C@@H]12 [Carbenoxolone disodium salt],0.708
2,CC(CN(C)C)CN1c2ccccc2Sc2ccccc21 (stereo unspecified) [Trimeprazine tartrate],0.71
3,C#C[C@]1(O)CC[C@H]2[C@@H]3CCC4=CC(=O)CC[C@@H]4[C@H]3CC[C@@]21CC [Norgestrel-(-)-D],1.2
4,N=C(N)NCCN1CCCCCCC1 [Guanethidine sulfate],0.778
5,CCCOc1ccc(C(=O)OCCN(CC)CC)cc1N [Proparacaine hydrochloride],1.99
6,CC(=O)OCC(=O)[C@@]1(OC(C)=O)[C@@H](C)C[C@H]2[C@@H]3C[C@H](F)C4=CC(=O)C=C[C@]4(C)[C@@]3(F)[C@@H](O)C[C@@]21C [Diflorasone Diacetate],1.49
7,CC[C@@H](CO)NCCN[C@@H](CC)CO [Ethambutol dihydrochloride],1.02
8,Cc1cc(N)c2ccccc2[n+]1CCCCCCCCCC[n+]1c(C)cc(N)c2ccccc21 [Dequalinium dichloride],1.5
9,COc1ccccc1OCC(O)COC(N)=O (stereo unspecified) [Methocarbamol],1.06
10,CCOC(=O)[C@@](C)(N)Cc1ccc(O)c(O)c1 [Methyldopate hydrochloride],1.32
11,O=C(c1ccccc1)c1ccc2n1CCC2C(=O)O (stereo unspecified) [Ketorolac tromethamine],0.918
12,"c1ccc(CNc2ncnc3nc[nH]c23)cc1 [Aminopurine, 6-benzyl]",1.19
13,CCN[C@@H]1C[C@H](N)[C@@H](O[C@H]2OC(CN)=CC[C@H]2N)[C@H](O)[C@H]1O[C@H]1OC[C@](C)(O)[C@H](NC)[C@H]1O [Netilmicin sulfate],0.656
14,CN1Cc2c(N)cccc2C(c2ccccc2)C1 (stereo unspecified) [Nomifensine maleate],0.701
15,Cc1c(N)c(=O)n(-c2ccccc2)n1C [Ampyrone],0.835
16,C=CCOc1ccccc1OCC(O)CNC(C)C (stereo unspecified) [Oxprenolol hydrochloride],0.761
17,NC[C@H]1O[C@H](O[C@H]2[C@H](O)[C@@H](O[C@H]3O[C@H](CO)[C@@H](O)[C@H](N)[C@H]3O)[C@H](N)C[C@@H]2N)[C@H](N)C[C@@H]1O [Tobramycin],1.3
18,O=c1c(O)c(-c2ccc(O)cc2)oc2cc(O)cc(O)c12 [Kaempferol],1.84
19,COc1cc2nc(N3CCN(C(=O)C4COc5ccccc5O4)CC3)nc(N)c2cc1OC (stereo unspecified) [Doxazosin mesylate],1.21
20,CCCCC1C(=O)N(c2ccccc2)N(c2ccc(O)cc2)C1=O (stereo unspecified) [Oxyphenbutazone],0.683
21,N[C@H]1CONC1=O [(S)-(-)-Cycloserine],0.435
22,CCN(CC)CCOCCOC(=O)C1(c2ccccc2)CCCC1 [Carbetapentane citrate],0.839
23,CC(C)(CO)[C@@H](O)C(=O)NCCC(=O)O [Pantothenic acid calcium salt monohydrate],0.92
24,CCN(CCCCOC(=O)c1ccc(OC)c(OC)c1)C(C)Cc1ccc(OC)cc1 (stereo unspecified) [Mebeverine hydrochloride],1.01
25,Cc1cc(C(C)(C)C)cc(C)c1CC1=NCCN1 [Xylometazoline hydrochloride],1.18
26,CC#C[C@]1(O)CC[C@H]2[C@@H]3CCC4=CC(=O)CCC4=C3[C@@H](c3ccc(N(C)C)cc3)C[C@@]21C [Mifepristone],1.09

# Reprinted at random: 3 entries already listed.
row,Compound,% Pdx1+ Ins1-low
16,C=CCOc1ccccc1OCC(O)CNC(C)C (stereo unspecified) [Oxprenolol hydrochloride],0.761
13,CCN[C@@H]1C[C@H](N)[C@@H](O[C@H]2OC(CN)=CC[C@H]2N)[C@H](O)[C@H]1O[C@H]1OC[C@](C)(O)[C@H](NC)[C@H]1O [Netilmicin sulfate],0.656
19,COc1cc2nc(N3CCN(C(=O)C4COc5ccccc5O4)CC3)nc(N)c2cc1OC (stereo unspecified) [Doxazosin mesylate],1.21

# More records.

row,Compound,% Pdx1+ Ins1-low
1,COc1ccc(Cl)cc1C(=O)NCCc1ccc(S(=O)(=O)NC(=O)NC2CCCCC2)cc1 [Glibenclamide],0.984
2,CCCOc1ccccc1-c1nc2[nH]nnc2c(=O)[nH]1 [Zaprinast],0.776
3,COc1cc(NS(=O)(=O)c2ccc(N)cc2)ncn1 [Sulfamonomethoxine],0.919
4,Cc1cc(C)nc(NS(=O)(=O)c2ccc(N)cc2)n1 [Sulfamethazine sodium salt],1.08
5,CN(C(=O)CN(CCO)CC(=O)N(C)C(C)(C)Cc1ccccc1)C(C)(C)Cc1ccccc1 [Oxethazaine],1
6,CC(C(O)c1ccc(O)cc1)N1CCC(Cc2ccccc2)CC1 (stereo unspecified) [Ifenprodil tartrate],0.898
7,C[C@@H]1C/C=C/C=C/C=C/C=C/[C@H](O[C@@H]2O[C@H](C)[C@@H](O)[C@H](N)[C@@H]2O)C[C@@H]2O[C@](O)(C[C@@H](O)C[C@H]3O[C@@H]3/C=C/C(=O)O1)C[C@H](O)[C@H]2C(=O)O [Natamycin],1.5
8,CO/N=C(\C(=O)N[C@@H]1C(=O)N2C(C(=O)O)=C(COC(C)=O)CS[C@H]12)c1csc(N)n1 [Cefotaxime sodium salt],1.11
9,COc1cc(CNC(=O)CCCC/C=C/C(C)C)ccc1O [Capsaicin],0.57
10,O=C(O)[C@@H]1[C@H]2C[C@H]3c4[nH]c5ccccc5c4CCN3C[C@@H]2CC[C@@H]1O [Yohimbinic acid monohydrate],1.26
11,CC(=O)Nc1nnc(S(N)(=O)=O)s1 [Acetazolamide],0.746
12,Cc1cc2cc3c(C)cc(=O)oc3c(C)c2o1 [Trioxsalen],0.84
13,CCCCOc1cc(C(=O)OCCN(CC)CC)ccc1N [Benoxinate hydrochloride],1.36
14,CC(=O)c1cc2ccccc2oc1=O [3-Acetylcoumarin],0.699
15,CCN(CC)CCNC(=O)c1ccc(N)cc1 [Procainamide hydrochloride],1.69
16,CC(=O)Nc1c(I)c(C(=O)N[C@H]2C(O)O[C@H](CO)[C@@H](O)[C@@H]2O)c(I)c(N(C)C(C)=O)c1I (stereo partly specified) [Metrizamide],0.857
17,CCOC1O[C@H]([C@@H](COCc2ccccc2)OCc2ccccc2)[C@H](OCc2ccccc2)[C@H]1O (stereo partly specified) [Tribenoside],1.17
18,CC(C)[N+]1(C)[C@@H]2CC[C@H]1C[C@@H](OC(=O)C(CO)c1ccccc1)C2 (stereo partly specified) [Ipratropium bromide],1.08
19,Nc1ccc(S(=O)(=O)Nc2nccs2)cc1 [Sulfathiazole],0.978
20,CC(CNC1CCCCC1)OC(=O)c1ccccc1 (stereo unspecified) [Hexylcaine hydrochloride],1.06
21,CN[C@H]1CC[C@@H](c2ccc(Cl)c(Cl)c2)c2ccccc21 [Sertraline],0.764
22,C[C@@H]1CCC[C@H](C)N1NC(=O)c1ccc(Cl)c(S(N)(=O)=O)c1 [Clopamide],0.538
23,NC(Cn1ccc(=O)c(O)c1)C(=O)O (stereo unspecified) [Mimosine],0.899
24,COC(=O)Nc1nc2cc(Sc3ccccc3)ccc2[nH]1 [Fenbendazole],1.56
25,CC(=O)N(CC(O)CO)c1c(I)c(C(=O)NCC(O)CO)c(I)c(C(=O)NCC(O)CO)c1I (stereo unspecified) [Iohexol],0.892
26,CN(CCCCCCCCCCN(C)C(=O)Oc1cccc([N+](C)(C)C)c1)C(=O)Oc1cccc([N+](C)(C)C)c1 [Demecarium bromide],0.808

row,Compound,% Pdx1+ Ins1-low
1,CN1CCN(CC(=O)N2c3ccccc3C(=O)Nc3cccnc32)CC1 [Pirenzepine dihydrochloride],0.929
2,Nc1ncnc2c1ncn2[C@@H]1O[C@H](CO)[C@@H](O)[C@@H]1O [Vidarabine],0.771
3,CN(C)CCC(c1ccc(Br)cc1)c1ccccn1 (stereo unspecified) [Brompheniramine maleate],0.656
4,CCC1(c2ccccc2)C(=O)NCNC1=O [Primidone],0.636
5,CCN(CC)C(=O)c1ccc(O)c(OC)c1 [Ethamivan],1.1
6,O=C(c1ccc(F)cc1)C1CCN(CCn2c(=O)[nH]c3ccccc3c2=O)CC1 [Ketanserin tartrate hydrate],0.975
7,C[C@H]1[C@H](C)CC[C@]2(C(=O)O)CC[C@]3(C)C(=CC[C@@H]4[C@@]5(C)CC[C@H](O)C(C)(C)[C@@H]5CC[C@]43C)[C@H]12 [Ursolic acid],0.872
8,O=C1NCC2(CCN(CCc3ccccc3)CC2)O1 [Fenspiride hydrochloride],1.05
9,CN(C)CCOC(c1ccccc1)c1ccccc1.Cn1c(=O)c2[nH]c(Cl)nc2n(C)c1=O [Dimenhydrinate],1.15
10,Cc1cc2nc3c(=O)[nH]c(=O)nc-3n(C[C@H](O)[C@H](O)[C@H](O)CO)c2cc1C [Riboflavine],1.12
11,Clc1cccc(Cl)c1NC1=NCCN1 [Clonidine hydrochloride],1.06
12,N=C(N)NCCCCNC(=N)N [Arcaine sulfate],0.612
13,CCCNC(=O)NS(=O)(=O)c1ccc(Cl)cc1 [Chlorpropamide],0.975
14,CCN(CC)C(C)CN1c2ccccc2Sc2ccccc21 (stereo unspecified) [Ethopropazine hydrochloride],0.745
15,CNCCc1ccccn1 [Betahistine mesylate],0.872
16,CC=CC(=O)N(CC)c1ccccc1C [Crotamiton],1.1
17,CN(C)C(=N)NC(=N)N [Metformin hydrochloride],0.991
18,NCCCCCC(=O)O [Aminocaproic acid],0.937
19,Nc1nc2c(ncn2COC(CO)CO)c(=O)[nH]1 [Ganciclovir],0.439
20,O=C1O[C@H]([C@@H](O)CO)C(O)=C1O [Ascorbic acid],1.04
21,O=C(O)c1ccccc1Nc1cccc(C(F)(F)F)c1 [Flufenamic acid],1.24
22,OCCN1CCN(CC/C=C2/c3ccccc3Sc3ccc(Cl)cc32)CC1 [Zuclopenthixol hydrochloride],0.913
23,C[N+]1(C)CCCC1C(=O)O (stereo unspecified) [Stachydrine hydrochloride],0.945
24,CCC(=O)O[C@]1(C(=O)SCF)[C@H](C)C[C@H]2[C@@H]3C[C@H](F)C4=CC(=O)C=C[C@]4(C)[C@@]3(F)[C@@H](O)C[C@@]21C [Fluticasone propionate],1.28
